Experimental data reported in article PMC10496494.
Results are given in words; binding and its absence hold for the method and conditions named. Binding seen in cells or lysates may run through a third protein. Some results given as binding are weak or reduced against the parent protein; the word gives no strength.

Chains of the proteins cited; added tags and fusions are not shown.
UniProt P06748: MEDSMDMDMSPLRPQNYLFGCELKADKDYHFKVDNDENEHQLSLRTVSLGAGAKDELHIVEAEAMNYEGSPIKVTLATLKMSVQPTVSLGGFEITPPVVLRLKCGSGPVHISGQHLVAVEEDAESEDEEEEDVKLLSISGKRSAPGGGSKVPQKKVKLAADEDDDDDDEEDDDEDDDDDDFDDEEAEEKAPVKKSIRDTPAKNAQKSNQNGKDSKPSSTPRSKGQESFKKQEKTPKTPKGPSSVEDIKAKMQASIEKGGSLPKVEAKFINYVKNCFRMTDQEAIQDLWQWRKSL

Molecular target: T1, DDX24, endogenous in HUVECs (human (endogenous in HUVECs)) (UniProt Q9GZR7)
T1 sequence: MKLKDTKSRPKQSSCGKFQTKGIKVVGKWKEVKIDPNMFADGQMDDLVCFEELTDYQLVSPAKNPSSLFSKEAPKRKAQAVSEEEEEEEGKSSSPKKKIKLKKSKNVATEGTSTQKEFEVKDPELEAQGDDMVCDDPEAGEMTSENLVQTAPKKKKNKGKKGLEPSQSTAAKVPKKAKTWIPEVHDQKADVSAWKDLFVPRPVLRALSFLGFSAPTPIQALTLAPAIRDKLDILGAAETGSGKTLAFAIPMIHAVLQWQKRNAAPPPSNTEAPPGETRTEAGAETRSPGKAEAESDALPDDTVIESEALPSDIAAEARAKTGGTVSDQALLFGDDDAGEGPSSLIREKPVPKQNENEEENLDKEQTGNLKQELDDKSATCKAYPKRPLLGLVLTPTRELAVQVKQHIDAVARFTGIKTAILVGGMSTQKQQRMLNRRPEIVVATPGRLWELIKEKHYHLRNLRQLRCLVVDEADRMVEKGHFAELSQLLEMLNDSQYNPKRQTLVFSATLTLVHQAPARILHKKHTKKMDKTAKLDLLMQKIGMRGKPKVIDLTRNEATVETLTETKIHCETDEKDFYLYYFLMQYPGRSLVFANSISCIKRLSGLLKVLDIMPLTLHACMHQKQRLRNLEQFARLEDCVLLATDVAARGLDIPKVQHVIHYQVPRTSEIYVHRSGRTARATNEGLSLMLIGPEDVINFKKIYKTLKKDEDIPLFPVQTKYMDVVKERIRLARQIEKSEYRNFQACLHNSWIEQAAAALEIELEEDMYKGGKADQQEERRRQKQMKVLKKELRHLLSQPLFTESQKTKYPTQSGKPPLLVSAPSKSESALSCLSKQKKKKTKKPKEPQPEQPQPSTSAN
Experiment: co-IP; HUVEC lysate precipitated with anti-DDX24 antibody (Bethyl A300-698A) or control rabbit IgG, Pierce Co-Immunoprecipitation Kit; immunoblot of DDX24 and NPM1

binding: binds
Substance: NPM1, endogenous in HUVECs (from UniProt P06748 1-294)
